Article PMC8869308
No constants are given. Whether binding was seen depends on the method and setting. In cells and extracts the contact can be indirect. Some binding calls cover weakened binding; strength is not graded here.

By UniProt entry, the sequences of proteins in these tests, tags left out.
UniProt P15927: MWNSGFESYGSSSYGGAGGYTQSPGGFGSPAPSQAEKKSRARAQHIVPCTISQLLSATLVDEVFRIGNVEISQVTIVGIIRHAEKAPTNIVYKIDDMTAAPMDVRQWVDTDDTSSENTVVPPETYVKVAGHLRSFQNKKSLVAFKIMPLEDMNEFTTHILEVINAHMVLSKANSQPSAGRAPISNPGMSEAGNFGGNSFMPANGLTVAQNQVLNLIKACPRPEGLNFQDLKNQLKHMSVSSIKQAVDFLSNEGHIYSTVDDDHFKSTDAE
UniProt Q96AE4: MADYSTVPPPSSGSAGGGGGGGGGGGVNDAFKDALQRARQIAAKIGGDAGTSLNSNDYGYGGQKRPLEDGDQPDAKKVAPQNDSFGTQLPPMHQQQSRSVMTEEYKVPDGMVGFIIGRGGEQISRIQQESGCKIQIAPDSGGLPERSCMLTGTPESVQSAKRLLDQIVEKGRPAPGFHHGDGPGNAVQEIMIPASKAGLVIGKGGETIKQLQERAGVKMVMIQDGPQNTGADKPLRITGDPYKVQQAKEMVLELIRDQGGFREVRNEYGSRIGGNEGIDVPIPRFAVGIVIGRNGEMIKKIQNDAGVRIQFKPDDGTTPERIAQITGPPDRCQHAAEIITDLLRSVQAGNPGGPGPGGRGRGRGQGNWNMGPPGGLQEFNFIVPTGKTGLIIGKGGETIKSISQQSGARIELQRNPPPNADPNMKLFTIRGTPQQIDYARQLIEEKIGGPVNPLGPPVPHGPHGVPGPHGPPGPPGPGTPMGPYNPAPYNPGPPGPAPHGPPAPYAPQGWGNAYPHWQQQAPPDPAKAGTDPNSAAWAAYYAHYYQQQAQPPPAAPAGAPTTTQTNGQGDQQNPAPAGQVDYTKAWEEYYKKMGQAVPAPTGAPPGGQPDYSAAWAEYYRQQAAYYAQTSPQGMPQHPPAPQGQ
UniProt P39748: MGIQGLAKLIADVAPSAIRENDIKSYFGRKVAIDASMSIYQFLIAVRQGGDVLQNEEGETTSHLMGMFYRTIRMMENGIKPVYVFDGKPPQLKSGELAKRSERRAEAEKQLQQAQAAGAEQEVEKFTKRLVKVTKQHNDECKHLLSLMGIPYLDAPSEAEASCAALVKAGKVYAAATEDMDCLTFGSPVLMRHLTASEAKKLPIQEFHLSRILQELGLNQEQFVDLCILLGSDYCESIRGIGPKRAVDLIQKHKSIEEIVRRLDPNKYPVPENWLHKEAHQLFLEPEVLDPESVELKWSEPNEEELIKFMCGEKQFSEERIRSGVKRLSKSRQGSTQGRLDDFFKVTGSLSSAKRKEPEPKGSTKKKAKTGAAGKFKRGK
UniProt P22061: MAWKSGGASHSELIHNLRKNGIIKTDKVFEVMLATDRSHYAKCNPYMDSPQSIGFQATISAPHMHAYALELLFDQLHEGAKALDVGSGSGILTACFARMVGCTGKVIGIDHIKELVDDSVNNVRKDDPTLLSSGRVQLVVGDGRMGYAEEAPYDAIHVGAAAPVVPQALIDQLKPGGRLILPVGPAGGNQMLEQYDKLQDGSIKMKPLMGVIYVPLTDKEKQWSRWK
UniProt Q13148: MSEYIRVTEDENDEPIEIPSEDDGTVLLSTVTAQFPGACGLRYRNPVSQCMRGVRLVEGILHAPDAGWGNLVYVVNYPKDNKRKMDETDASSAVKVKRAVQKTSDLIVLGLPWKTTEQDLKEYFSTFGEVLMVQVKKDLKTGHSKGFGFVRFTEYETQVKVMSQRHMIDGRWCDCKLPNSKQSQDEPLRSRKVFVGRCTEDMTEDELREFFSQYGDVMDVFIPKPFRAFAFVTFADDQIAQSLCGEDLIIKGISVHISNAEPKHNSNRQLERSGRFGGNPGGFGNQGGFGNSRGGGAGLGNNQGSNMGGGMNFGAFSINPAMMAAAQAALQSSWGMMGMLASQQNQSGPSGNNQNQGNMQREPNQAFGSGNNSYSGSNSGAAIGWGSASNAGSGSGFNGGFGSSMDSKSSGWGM

T1: T-cell intracellular antigen 1 (human) (UniProt P31483)
T1 sequence: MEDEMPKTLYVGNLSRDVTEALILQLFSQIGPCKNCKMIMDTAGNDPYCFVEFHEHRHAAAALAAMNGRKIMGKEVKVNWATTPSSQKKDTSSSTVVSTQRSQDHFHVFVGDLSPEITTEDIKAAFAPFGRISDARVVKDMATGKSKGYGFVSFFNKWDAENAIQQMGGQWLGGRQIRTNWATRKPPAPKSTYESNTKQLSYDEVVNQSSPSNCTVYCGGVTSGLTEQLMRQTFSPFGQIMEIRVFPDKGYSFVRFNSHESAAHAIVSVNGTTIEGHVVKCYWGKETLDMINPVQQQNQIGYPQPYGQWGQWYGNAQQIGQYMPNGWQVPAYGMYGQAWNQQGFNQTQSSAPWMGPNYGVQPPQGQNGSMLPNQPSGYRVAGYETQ

B1: translocase of outer mitochondrial membrane 40 (protein, UniProt O96008 1-361)
chain: MGNVLAASSPPAGPPPPPAPALVGLPPPPPSPPGFTLPPLGGSLGAGTSTSRSSERTPGAATASASGAAEDGACGCLPNPGTFEECHRKCKELFPIQMEGVKLTVNKGLSNHFQVNHTVALSTIGESNYHFGVTYVGTKQLSPTEAFPVLVGDMDNSGSLNAQVIHQLGPGLRSKMAIQTQQSKFVNWQVDGEYRGSDFTAAVTLGNPDVLVGSGILVAHYLQSITPCLALGGELVYHRRPGEEGTVMSLAGKYTLNNWLATVTLGQAGMHATYYHKASDQLQVGVEFEASTRMQDTSVSFGYQLDLPKANLLFKGSVDSNWIVGATLEKKLPPLPLTLALGAFLNHRKNKFQCGFGLTIG
B2: peptidase mitochondrial processing subunit beta (protein, UniProt O75439 44-489)
chain: STQAATQVVLNVPETRVTCLESGLRVASEDSGLSTCTVGLWIDAGSRYENEKNNGTAHFLEHMAFKGTKKRSQLDLELEIENMGAHLNAYTSREQTVYYAKAFSKDLPRAVEILADIIQNSTLGEAEIERERGVILREMQEVETNLQEVVFDYLHATAYQNTALGRTILGPTENIKSISRKDLVDYITTHYKGPRIVLAAAGGVSHDELLDLAKFHFGDSLCTHKGEIPALPPCKFTGSEIRVRDDKMPLAHLAIAVEAVGWAHPDTICLMVANTLIGNWDRSFGGGMNLSSKLAQLTCHGNLCHSFQSFNTSYTDTGLWGLYMVCESSTVADMLHVVQKEWMRLCTSVTESEVARARNLLKTNMLLQLDGSTPICEDIGRQMLCYNRRIPIPELEARIDAVNAETIREVCTKYIYNRSPAIAAVGPIKQLPDFKQIRSNMCWLRD

Biological target: T1, T-cell intracellular antigen 1 (human)
Assay: co-IP; TIA1-overexpressing SK-N-SH cells treated with or without sodium arsenite; non-denaturing PLB lysate; anti-TIA1 antibody or IgG as control, protein A/G magnetic beads; immunoblot

binding	Molecule
binds	Replication protein A2 (from UniProt P15927 1-270)
binds	far upstream element binding protein 1 (from UniProt Q96AE4 1-644)
binds	Flap structure-specific endonuclease 1 (from UniProt P39748 1-380)
binds	protein-L-isoaspartate O-methyltransferase (from UniProt P22061 1-227)
binds	TAR DNA-binding protein 43 (from UniProt Q13148 1-414)
binds	B1
binds	B2
